This assay addresses T1, His6-tagged mouse CRY1 PHR (photolyase homology region, amino acids 1-491) (mouse, UniProt P97784 1-491).
T1 construct: Expressed in Sf9 cells; also called wild-type CRY1 PHR; not shown: N-terminal His6 tag / vector residues
T1 sequence: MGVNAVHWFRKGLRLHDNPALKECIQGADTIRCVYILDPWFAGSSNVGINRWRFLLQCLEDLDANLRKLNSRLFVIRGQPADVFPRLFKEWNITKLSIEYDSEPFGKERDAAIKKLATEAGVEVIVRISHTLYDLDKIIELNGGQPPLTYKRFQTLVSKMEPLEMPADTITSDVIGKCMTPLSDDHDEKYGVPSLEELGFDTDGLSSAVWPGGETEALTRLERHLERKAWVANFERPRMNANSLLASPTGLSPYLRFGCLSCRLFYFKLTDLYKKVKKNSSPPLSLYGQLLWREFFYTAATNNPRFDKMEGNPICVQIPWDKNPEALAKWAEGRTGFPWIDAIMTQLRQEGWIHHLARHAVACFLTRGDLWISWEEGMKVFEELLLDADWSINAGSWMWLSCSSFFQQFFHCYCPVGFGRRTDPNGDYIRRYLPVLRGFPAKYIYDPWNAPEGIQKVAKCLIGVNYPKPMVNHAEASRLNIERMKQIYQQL
Description: GST pull-down, GST-BMAL1 PAS-AB alone. How it is done: Soluble proteins were purified using GS4B resin (GE Healthcare). GST-tagged proteins were eluted with 10 mM glutathione and peak elution was desalted into 20 mM HEPES pH 7.5, 125 mM NaCl, 5% glycerol and 2 mM TCEP. […] After rotation at 4° C. overnight, reactions were washed 3 times with the above buffer and eluted with 6× SDS. Samples were boiled for ˜5 min. and loaded on an SDS-PAGE gel for visualization by Coomassie stain.

B1: GST-BMAL1 PAS-AB (other)
chain: TNPYTEANYKPTFLSDDELKHLILRAADGFLFVVGCDRGKILFVSESVFKILNYSQNDLIGQSLFDYLHPKDIAKVKEQLSSSDTAPRERLIDAKTGLPVKTDITPGPSRLCSGARRSFFCRMKCNRPSVKVEDKDFASTCSKKKDRKSFCTIHSTGYLKSWPPTKMGLDEDNEPDNEGCNLSCLVAIGRLHSHMVPQPANGEIRVKSMEYVSRHAIDGKFVFVDQRATAILAYLPQELLGTSCYEYFHQDDIGHLAECHRQVLQTREKITTNCYKFKIKDGSFITLRSRWFSFMNPWTKEVEYIV
notes: not shown: Glutathione S-Transferase (GST) tag; linker with TEV protease site between GST and BMAL1 PAS-AB
For the molecule B1, the binding result is on record as “no binding”.

The values are drawn from patent US20190324032A1 (University of California, published 2019).
